Literature values, collected in patent publication US10238678B2, “Therapeutic methods” (GlaxoSmithKline LLC, priority 2011, dated 2019).
At least one compound was matched to its structure with a doubt left.

Test system: HCV
Settings: added to the pegylated interferon and ribavirin regimen

In the case of `CC(C)(C)NC(=O)N[C@H](C(=O)N1C[C@H]2[C@@H]([C@H]1C(=O)NC(CC1CCC1)C(=O)C(N)=O)C2(C)C)C(C)(C)C` (stereo partly shown) [Victrelis, boceprevir], the cure rates is listed as “more than 60%”.
